Experimental data taken from patent US20230203178A1 (SICHUAN KELUN BIOTECH BIOPHARMACEUTICAL, published 2023).

Target: T1, human BCMA (antigen) (human, UniProt Q02223 1-54, limits assumed)
T1 construct: Antigen coupled to the CM5 chip in SPR; also called B-cell maturation antigen; TNFRF17
T1 sequence (looked up): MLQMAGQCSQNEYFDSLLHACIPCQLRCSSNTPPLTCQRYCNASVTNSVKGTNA
Test: flow cytometry of lentivirus-transduced T cells labelled with antigen, 48 h after transduction; percent positive cells
Excerpt: The nucleic acid sequence encoding the CAR was expressed under the drive of a promoter, therefore the lentivirus-transfected T cells could be labeled with an antigen or anti-CD19 antibody and measured by flow cytometry, to reflect the expression level of the CAR on the surface of the T cells.

B1: FMC63 CAR (other)
chain: DIQMTQTTSSLSASLGDRVTISCRASQDISKYLNWYQQKPDGTVKLLIYHTSRLHSGVPSRFSGSGSGTDYSLTISNLEQEDIATYFCQQGNTLPYTFGGGTKLEITGGGGSGGGGSGGGGSEVKLQESGPGLVAPSQSLSVTCTVSGVSLPDYGVSWIRQPPRKGLEWLGVIWGSETTYYNSALKSRLTIIKDNSKSQVFLKMNSLQTDDTAIYYCAKHYYYGGSYAMDYWGQGTSVTVSSTTTPAPRPPTPAPTIASQPLSLRPEACRPAAGGAVHTRGLDFACDIYIWAPLAGTCGVLLLSLVITLYCKRGRKKLLYIFKQPFMRPVQTTQEEDGCSCRFPEEEEGGCELRVKFSRSADAPAYKQGQNQLYNELNLGRREEYDVLDKRRGRDPEMGGKPRRKNPQEGLYNELQKDKMAEAYSEIGMKGERRRGKGHDGLYQGLSTATKDTYDALHMQALPPR
notes: Chimeric antigen receptor on human T cells; built here from its parts without the signal peptide; also called FMC63 CAR-T
With B1 the “Positive rate of binding to BCMA” value was 1.01%.
